Measurements taken from paper PMC3506659, “Snm1B Interacts with PSF2” (PLoS ONE, 2012).

The chains behind the UniProt entries cited, without tags or fusion partners. Where a name states a change or a piece, a line headed by the entry shows the natural chain unless it says otherwise.
UniProt Q9H816: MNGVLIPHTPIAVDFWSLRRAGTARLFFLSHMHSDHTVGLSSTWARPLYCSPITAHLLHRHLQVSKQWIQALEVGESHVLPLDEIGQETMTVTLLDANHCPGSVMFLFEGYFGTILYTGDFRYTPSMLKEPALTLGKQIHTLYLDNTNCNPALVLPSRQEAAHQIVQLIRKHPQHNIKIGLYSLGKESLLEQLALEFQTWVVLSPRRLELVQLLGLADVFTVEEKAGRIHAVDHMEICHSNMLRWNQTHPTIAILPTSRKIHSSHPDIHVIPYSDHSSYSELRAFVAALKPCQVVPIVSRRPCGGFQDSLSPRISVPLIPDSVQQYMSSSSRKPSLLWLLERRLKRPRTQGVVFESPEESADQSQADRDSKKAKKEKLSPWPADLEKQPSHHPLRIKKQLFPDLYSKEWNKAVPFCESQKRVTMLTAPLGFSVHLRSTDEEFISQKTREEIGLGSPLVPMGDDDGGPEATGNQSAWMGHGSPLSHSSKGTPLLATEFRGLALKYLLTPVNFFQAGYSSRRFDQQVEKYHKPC

Target: N2 mutant of Flag-Snm1B (Flag-Snm1B^N2) (human) (UniProt Q9H816)
Assay: co-IP; competition: 293T co-transfected with Flag-Snm1B (WT or N2), Myc-PSF2 and/or Myc-TRF2 (WT or F120A); RIPA lysate, anti-Flag immunoprecipitation, immunoblot anti-Myc; Myc-PSF2:Flag-Snm1B ratio by ImageJ

B1: N-terminal Myc epitope-tagged human PSF2 (Myc-PSF2) (natural protein, UniProt Q9Y248 1-185, looked up)
chain: MDAAEVEFLAEKELVTIIPNFSLDKIYLIGGDLGPFNPGLPVEVPLWLAINLKQRQKCRLLPPEWMDVEKLEKMRDHERKEETFTPMPSPYYMELTKLLLNHASDNIPKADEIRTLVKDMWDTRIAKLRVSADSFVRQQEAHAKLDNLTLMEINTSGTFLTQALNHMYKLRTNLQPLESTQSQDF
notes: PSF2, subunit of the GINS complex, human, full length; amplified from clone MGC-673 (ATCC); source: 293T, transiently transfected (pCMV-MYC), in lysate; not shown: Myc, N-terminal, kept
In the case of B1, the binding is reported as “binds”.

These are yes or no findings as the source states them, for the method shown. In cells and extracts the contact can be indirect. Binding calls can cover weak binding; strength is not graded here. Sequences can lack the tags named with a protein.
